Amino acid sequences for entries named in this document (tags omitted). A change or cut given only in a name is not applied to a line headed by its entry.
UniProt Q14204, whole entry, looked up: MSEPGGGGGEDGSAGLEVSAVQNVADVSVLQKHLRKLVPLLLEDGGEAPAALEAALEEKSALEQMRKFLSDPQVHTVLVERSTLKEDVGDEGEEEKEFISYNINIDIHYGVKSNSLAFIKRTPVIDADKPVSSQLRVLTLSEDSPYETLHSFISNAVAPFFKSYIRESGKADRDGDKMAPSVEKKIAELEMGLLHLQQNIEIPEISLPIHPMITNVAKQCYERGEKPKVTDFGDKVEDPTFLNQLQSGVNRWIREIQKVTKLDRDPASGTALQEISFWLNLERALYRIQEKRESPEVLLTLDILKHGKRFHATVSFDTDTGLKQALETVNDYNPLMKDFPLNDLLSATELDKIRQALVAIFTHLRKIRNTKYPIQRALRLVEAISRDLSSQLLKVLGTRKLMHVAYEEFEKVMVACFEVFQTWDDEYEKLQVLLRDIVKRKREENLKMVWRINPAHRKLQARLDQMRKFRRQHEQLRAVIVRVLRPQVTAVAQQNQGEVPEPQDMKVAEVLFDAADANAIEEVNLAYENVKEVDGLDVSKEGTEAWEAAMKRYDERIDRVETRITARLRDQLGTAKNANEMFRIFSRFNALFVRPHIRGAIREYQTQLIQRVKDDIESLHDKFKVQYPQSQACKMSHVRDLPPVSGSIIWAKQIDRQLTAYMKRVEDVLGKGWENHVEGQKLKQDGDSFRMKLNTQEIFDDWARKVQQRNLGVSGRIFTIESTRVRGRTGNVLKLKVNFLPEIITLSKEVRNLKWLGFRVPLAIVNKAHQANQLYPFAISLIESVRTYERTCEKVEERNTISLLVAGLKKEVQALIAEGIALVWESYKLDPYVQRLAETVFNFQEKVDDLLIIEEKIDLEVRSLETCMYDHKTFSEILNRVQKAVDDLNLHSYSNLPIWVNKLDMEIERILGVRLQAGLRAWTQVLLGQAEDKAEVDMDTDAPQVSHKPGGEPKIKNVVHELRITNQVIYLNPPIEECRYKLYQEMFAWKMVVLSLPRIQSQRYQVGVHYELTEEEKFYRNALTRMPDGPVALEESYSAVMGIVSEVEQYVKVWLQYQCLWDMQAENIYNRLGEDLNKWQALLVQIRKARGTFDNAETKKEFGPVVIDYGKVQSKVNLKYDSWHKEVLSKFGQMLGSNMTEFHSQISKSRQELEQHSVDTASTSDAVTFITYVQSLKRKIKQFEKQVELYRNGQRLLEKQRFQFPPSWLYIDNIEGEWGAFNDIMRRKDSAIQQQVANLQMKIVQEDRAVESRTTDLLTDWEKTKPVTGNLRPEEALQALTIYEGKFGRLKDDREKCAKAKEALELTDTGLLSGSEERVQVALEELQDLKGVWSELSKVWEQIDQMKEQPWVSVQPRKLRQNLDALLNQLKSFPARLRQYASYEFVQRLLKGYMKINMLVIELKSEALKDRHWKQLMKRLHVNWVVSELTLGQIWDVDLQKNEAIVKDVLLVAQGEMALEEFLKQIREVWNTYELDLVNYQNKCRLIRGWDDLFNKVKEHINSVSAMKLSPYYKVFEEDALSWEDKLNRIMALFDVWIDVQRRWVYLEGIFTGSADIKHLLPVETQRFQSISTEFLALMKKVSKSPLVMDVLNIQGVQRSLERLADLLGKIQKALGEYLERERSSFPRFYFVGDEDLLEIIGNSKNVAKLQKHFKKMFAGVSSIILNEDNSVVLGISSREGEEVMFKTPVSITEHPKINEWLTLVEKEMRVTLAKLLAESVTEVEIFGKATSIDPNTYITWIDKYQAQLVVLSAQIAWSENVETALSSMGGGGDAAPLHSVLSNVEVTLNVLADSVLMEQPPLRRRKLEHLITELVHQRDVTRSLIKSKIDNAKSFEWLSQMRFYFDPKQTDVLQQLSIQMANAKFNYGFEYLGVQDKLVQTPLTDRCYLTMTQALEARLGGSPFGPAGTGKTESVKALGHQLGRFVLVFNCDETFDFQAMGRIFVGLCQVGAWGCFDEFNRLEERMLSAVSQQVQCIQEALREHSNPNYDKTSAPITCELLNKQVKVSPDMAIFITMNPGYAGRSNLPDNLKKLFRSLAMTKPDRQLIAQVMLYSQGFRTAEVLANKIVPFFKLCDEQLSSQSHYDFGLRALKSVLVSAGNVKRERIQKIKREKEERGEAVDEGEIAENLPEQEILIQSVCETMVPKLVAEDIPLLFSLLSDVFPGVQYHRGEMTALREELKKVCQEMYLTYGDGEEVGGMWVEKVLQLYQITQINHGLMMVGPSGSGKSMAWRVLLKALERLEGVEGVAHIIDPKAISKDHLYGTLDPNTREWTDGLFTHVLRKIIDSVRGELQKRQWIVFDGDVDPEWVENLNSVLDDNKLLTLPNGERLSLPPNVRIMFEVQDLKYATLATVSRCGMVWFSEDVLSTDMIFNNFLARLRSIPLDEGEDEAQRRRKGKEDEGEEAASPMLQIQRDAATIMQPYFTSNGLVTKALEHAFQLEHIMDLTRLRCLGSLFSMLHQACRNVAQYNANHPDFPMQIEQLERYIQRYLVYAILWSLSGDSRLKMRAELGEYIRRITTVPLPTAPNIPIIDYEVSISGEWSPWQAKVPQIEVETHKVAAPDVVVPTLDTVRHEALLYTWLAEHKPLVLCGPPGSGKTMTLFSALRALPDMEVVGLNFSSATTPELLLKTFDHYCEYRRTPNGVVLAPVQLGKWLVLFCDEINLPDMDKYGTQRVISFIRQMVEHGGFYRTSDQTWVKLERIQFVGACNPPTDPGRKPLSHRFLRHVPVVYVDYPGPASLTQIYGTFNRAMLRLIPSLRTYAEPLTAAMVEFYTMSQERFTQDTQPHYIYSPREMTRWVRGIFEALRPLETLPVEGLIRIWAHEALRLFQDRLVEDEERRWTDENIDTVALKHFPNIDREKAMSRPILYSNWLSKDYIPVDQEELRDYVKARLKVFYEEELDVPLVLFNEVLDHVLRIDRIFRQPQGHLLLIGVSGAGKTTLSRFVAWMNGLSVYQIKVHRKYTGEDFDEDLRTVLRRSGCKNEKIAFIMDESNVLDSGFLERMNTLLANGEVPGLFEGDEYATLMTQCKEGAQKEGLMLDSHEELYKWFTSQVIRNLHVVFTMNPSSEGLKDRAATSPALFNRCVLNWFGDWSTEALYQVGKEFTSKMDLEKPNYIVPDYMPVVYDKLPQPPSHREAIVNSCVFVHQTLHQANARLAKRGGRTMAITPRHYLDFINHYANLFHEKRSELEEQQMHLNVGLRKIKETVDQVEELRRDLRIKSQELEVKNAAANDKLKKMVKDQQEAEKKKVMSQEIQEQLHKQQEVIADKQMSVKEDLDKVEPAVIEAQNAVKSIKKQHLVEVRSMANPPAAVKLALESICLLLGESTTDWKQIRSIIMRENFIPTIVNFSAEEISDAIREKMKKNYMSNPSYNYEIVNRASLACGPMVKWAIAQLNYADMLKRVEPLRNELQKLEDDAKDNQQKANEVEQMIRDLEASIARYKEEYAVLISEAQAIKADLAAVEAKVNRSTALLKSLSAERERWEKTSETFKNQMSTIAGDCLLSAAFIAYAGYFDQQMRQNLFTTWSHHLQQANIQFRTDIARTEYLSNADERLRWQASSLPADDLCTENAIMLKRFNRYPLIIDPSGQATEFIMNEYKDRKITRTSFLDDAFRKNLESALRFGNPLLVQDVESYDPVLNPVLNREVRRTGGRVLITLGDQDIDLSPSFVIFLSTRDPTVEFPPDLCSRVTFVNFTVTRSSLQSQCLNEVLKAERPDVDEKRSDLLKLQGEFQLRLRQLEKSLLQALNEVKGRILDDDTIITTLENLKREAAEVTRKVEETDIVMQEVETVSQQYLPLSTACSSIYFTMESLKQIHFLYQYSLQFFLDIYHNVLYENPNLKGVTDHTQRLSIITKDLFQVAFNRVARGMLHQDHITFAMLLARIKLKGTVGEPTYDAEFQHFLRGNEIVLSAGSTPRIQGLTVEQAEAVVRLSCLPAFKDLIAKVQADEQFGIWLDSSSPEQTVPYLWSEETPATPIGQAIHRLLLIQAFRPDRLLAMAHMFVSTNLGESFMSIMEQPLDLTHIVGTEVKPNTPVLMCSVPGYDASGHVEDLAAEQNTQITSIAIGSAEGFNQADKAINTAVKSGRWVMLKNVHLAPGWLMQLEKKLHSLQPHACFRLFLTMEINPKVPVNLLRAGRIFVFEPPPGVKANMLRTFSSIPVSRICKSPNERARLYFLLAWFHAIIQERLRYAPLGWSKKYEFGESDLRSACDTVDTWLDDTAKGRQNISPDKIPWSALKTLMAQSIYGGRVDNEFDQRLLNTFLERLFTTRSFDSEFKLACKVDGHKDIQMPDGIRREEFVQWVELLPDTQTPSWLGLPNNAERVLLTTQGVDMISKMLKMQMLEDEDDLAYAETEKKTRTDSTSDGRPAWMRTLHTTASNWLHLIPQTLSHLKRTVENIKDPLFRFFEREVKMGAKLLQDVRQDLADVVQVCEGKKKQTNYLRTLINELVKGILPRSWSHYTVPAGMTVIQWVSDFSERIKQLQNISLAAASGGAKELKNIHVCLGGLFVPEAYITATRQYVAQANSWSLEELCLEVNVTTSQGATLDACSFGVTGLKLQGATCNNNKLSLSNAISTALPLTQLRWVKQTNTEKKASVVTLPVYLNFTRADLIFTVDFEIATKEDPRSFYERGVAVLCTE
UniProt Q14574: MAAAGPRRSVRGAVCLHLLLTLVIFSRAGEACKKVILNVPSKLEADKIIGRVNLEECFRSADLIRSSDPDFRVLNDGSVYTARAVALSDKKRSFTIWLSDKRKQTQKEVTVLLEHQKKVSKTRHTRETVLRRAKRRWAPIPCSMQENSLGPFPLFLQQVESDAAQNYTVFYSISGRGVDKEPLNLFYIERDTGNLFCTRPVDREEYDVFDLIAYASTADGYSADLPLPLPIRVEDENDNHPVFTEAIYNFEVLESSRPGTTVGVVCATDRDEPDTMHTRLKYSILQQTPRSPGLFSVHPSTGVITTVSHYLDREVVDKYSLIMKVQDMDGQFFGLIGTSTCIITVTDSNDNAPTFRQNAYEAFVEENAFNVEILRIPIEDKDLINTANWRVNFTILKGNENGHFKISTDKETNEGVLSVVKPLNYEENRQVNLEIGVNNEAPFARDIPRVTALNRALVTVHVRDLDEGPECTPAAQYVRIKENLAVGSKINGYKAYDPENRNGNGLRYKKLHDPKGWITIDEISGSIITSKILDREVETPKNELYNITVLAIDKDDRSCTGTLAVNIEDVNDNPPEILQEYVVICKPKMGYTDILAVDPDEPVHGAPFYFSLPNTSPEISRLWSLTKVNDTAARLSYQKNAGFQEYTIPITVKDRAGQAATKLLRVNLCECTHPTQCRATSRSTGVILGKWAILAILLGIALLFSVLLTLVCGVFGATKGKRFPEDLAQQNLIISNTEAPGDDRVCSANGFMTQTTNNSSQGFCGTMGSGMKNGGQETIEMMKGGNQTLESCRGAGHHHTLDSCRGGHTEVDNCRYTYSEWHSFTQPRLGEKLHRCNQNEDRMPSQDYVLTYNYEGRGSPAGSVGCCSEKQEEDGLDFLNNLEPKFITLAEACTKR
UniProt Q14241: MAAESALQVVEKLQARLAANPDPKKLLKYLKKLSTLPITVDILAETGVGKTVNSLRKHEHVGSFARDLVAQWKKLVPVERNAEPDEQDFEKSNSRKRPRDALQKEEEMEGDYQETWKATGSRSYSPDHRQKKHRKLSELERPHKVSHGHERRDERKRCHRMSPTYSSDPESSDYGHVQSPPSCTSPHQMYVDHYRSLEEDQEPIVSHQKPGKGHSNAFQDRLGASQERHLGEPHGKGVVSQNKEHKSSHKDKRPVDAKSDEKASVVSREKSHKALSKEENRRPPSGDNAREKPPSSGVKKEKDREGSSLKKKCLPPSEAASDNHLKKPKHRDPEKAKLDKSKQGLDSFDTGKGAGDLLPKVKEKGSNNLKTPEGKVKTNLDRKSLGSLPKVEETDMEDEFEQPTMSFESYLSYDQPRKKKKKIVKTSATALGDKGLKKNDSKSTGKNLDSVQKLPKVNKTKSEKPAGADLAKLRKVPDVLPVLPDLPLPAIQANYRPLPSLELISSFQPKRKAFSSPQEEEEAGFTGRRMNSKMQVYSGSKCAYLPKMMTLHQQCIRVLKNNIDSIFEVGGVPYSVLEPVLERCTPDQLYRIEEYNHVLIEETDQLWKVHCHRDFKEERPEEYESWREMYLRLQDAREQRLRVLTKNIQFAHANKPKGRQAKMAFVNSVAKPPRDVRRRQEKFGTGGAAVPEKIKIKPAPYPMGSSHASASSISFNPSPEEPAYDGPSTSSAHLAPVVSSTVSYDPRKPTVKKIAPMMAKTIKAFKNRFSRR

The entries are a selection whose mix differs from that of the whole data set. Single values of this set are uncertain.
What follows are targets tested with COC(=O)/C=C/c1ccccc1 [methyl cinnamate] (assay: log2 ratio of iodoacetamide-alkyne labeling of the cysteine site, DMSO over compound (competition); higher = stronger covalent engagement of the cysteine by the compound, active = 1 or more). Conditions: 500 µM; treatment time 1 h; system: HEK293T cell lysate.
Outline: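 HEK293T lysate (2 mg/mL) was incubated with electrophile (500 µM) or vehicle for 1 h at ambient temperature and then with iodoacetamide alkyne for 1 h. Labelled proteins were clicked to sCIP-TMT reagents, pooled, digested, enriched on streptavidin and measured by Orbitrap Eclipse LC-MS/MS with FAIMS, with FragPipe quantification. The per-cysteine log2 competition ratio is mean control-channel reporter intensity over mean compound-channel reporter intensity. Across three replicates with duplicate channels, cysteines quantified in only one replicate were excluded.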
For NCAPH C239 (UniProt Q15003), the “log2 ratio of iodoacetamide-alkyne labeling” value (“log2 ratio” for short) was inactive: 0.179. With RRP1B C386 (UniProt Q14684) the “log2 ratio” value was inactive: 0.348. GAPVD1 C741 (UniProt Q14C86) was tested, and the “log2 ratio” value was inactive: 0.268. For BOP1 C108 (UniProt Q14137), the “log2 ratio” value was inactive: 0.221. In the case of DCTN1 C1252 (UniProt Q14203), the “log2 ratio” value is reported as inactive: 0.275. RRP1B C286 (UniProt Q14684) was tested, and the “log2 ratio” value was inactive: 0.256. With LAGE3 C23 (UniProt Q14657) the “log2 ratio” value was inactive: 0.0381. In the case of CAMK2G C273 (UniProt Q13555), the “log2 ratio” value is reported as inactive: 0.179. With POLA2 C590 (UniProt Q14181) the “log2 ratio” value was inactive: 0.0391. For CHD4 C1121 (UniProt Q14839), the “log2 ratio” value was inactive: -0.0501. For BMS1 C101 (UniProt Q14692), the “log2 ratio” value was inactive: 0.144. With FRG1 C159 (UniProt Q14331) the “log2 ratio” value was inactive: -0.000801. For PUM1 C1179 (UniProt Q14671), the “log2 ratio” value was inactive: -0.24. KPNB1 C689 (UniProt Q14974) was tested, and the “log2 ratio” value was inactive: 0.0823. DYNC1H1 C4216 (UniProt Q14204) was tested, and the “log2 ratio” value was inactive: 0.182. In the case of DYNC1H1 C2594 (UniProt Q14204), the “log2 ratio” value is reported as inactive: -0.116. In the case of UniProt Q14004_C701, the “log2 ratio” value is reported as inactive: 0.12. In the case of EIF4EBP2 C35 (UniProt Q13542), the “log2 ratio” value is reported as inactive: 0.209. UniProt Q13885_C239 was tested, and the “log2 ratio” value was inactive: 0.0467. UBE4A C1002 (UniProt Q14139) was tested, and the “log2 ratio” value was inactive: 0.23. In the case of SNX1 C318 (UniProt Q13596), the “log2 ratio” value is reported as inactive: 0.193. For NCAPH C397 (UniProt Q15003), the “log2 ratio” value was inactive: 0.237. With NCAPD2 C772 (UniProt Q15021) the “log2 ratio” value was inactive: 0.0133. In the case of SART3 C670 (UniProt Q15020), the “log2 ratio” value is reported as inactive: 0.329. BYSL C381 (UniProt Q13895) was tested, and the “log2 ratio” value was inactive: 0.0906. KPNB1 C817 (UniProt Q14974) was tested, and the “log2 ratio” value was inactive: 0.588. With UniProt Q14574_C471 the “log2 ratio” value was inactive: 0.00547. For MORC3 C619 (UniProt Q14149), the “log2 ratio” value was inactive: 0.147. GNL2 C336 (UniProt Q13823) was tested, and the “log2 ratio” value was inactive: 0.428. With FLNC C1448 (UniProt Q14315) the “log2 ratio” value was inactive: 0.318. With GANAB C502 (UniProt Q14697) the “log2 ratio” value was inactive: 0.011. KRR1 C102 (UniProt Q13601) was tested, and the “log2 ratio” value was inactive: -0.00121. With ZNF638 C879 (UniProt Q14966) the “log2 ratio” value was inactive: 0.272. In the case of ATR C1343 (UniProt Q13535), the “log2 ratio” value is reported as inactive: 0.534. In the case of UniProt Q14241_C339, the “log2 ratio” value is reported as inactive: 0.118. For UniProt Q13885_C211, the “log2 ratio” value was inactive: 0.371. With UBE4A C989 (UniProt Q14139) the “log2 ratio” value was inactive: 0.23.
